Measurements taken from the supplement of paper PMC10735217.
This is one part of the list. Single values are uncertain here, since repeats match poorly.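 In a drug-repurposing library screen, luminescence reads luciferase driven by eight TEAD-binding elements, stably integrated into human kidney-derived cells. Compounds scoring over five robust Z scores above the plate mean are called hits.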

Tested on: HEK293A TEAD-LUC reporter
Assay: TEAD-luciferase reporter activity (YAP activation), robust Z score vs plate; higher = stronger YAP/TEAD activation
Conditions: 24 h

Row | SMILES | TEAD-luciferase reporter activity (compound concentration: 200 nM) | TEAD-luciferase reporter activity (compound concentration: 10 uM) | TEAD-luciferase reporter activity (compound concentration: 2 uM)
1 | O=C(NC1CC1)C1CN(c2ccc(F)cc2)C(=O)N1 (centres undefined) | inactive: 1.36 | inactive: 1.64 | –
2 | NC(=O)/C=C1\CCc2c(F)cc(F)cc21 | inactive: -0.444 | inactive: -0.773 | active: 5.63
3 | COc1cc(C(C)=O)cc([N+](=O)[O-])c1O | inactive: 0.885 | inactive: -1.67 | inactive: 0.616
4 | COc1cccc(C(=O)N(C)Cc2ccc(F)cc2)c1 | inactive: -0.579 | inactive: -0.427 | –
5 | CC(C)(C)NCC(O)COc1ccccc1C#N (centres undefined) [bunitrolol] | active: 6.38 | inactive: 1.03 | inactive: 0.424
6 | CCNCc1nc2c(C(=O)NC)c(Cl)cc(Cl)c2o1 | inactive: -0.701 | inactive: -1.36 | inactive: -0.744
7 | COc1ccc(N2CCN(C(=O)c3ccnc4ccccc34)CC2)cc1 | inactive: 1.34 | inactive: -1.15 | inactive: -1.37
8 | Cc1c(C(=O)NN2CCCCC2)nn(-c2ccc(Cl)cc2Cl)c1-c1ccc(Cl)cc1 [Rimonabant] | inactive: 0.241 | inactive: -2.04 | –
9 | Cc1c(C(=O)NN2CCCCC2)nn(-c2ccc(Cl)cc2Cl)c1-c1ccc(Cl)cc1 [rimonabant] | – | – | inactive: -0.114
10 | CC(=O)OCC(=O)C12N=C(C)O[C@@H]1C[C@H]1C3CCC4=CC(=O)C=CC4(C)[C@@]3(F)[C@@H](O)CC12C (some centres undefined) | inactive: -2.92 | inactive: 0.00243 | inactive: 0.15
11 | CNC(=S)C1(C(=O)c2ccc(-n3ccnc3)cc2)CCC1 | inactive: -0.678 | inactive: 1.81 | inactive: -0.415
12 | N#C[C@H]1[C@H](O)[C@@H](CO)O[C@H]1n1ccc(N)nc1=O | inactive: -1.74 | inactive: -1.31 | inactive: -0.824
13 | CC(C)n1c(C2CCNCC2)nc2c([N+](=O)[O-])c(Br)c(Br)cc21 | inactive: 1.76 | inactive: -0.603 | inactive: 0.0812
14 | N/C(=N\Nc1ccccc1)c1ccccc1 | inactive: 0.938 | inactive: 1.23 | inactive: -0.328
15 | CCCCOc1nc(N)c2[nH]c(=O)n(CCCCCC3CCNCC3)c2n1 | inactive: -0.477 | inactive: 0.219 | inactive: 4.8
16 | C=CCc1ccc(OCC(=O)N(CC)CC)c(OC)c1 | inactive: -0.627 | inactive: 0.496 | inactive: -1.65
17 | O=C([O-])CC(NC(=O)CP(=O)([O-])[O-])C(=O)[O-] (centres undefined) [Sparfosic acid] | inactive: -1.4 | inactive: 0.0481 | inactive: 0.293
18 | CC12C=CCC1C1CC=C3C[C@@H](O)CCC3(C)C1CC2 (some centres undefined) [analog of aloradine] | inactive: -0.503 | inactive: -0.682 | active: 12.1

Given with tabs: entries from further up
Row	SMILES	TEAD-luciferase reporter activity (compound concentration: 200 nM)	TEAD-luciferase reporter activity (compound concentration: 10 uM)	TEAD-luciferase reporter activity (compound concentration: 2 uM)
1	O=C(NC1CC1)C1CN(c2ccc(F)cc2)C(=O)N1 (centres undefined)	inactive: 1.36	inactive: 1.64	–
8	Cc1c(C(=O)NN2CCCCC2)nn(-c2ccc(Cl)cc2Cl)c1-c1ccc(Cl)cc1 [Rimonabant]	inactive: 0.241	inactive: -2.04	–
